Measured values from the supplement of paper PMC10331698.
± gives the standard deviation of the averaged measurements. Most values lie at the level of the controls, where differences are scatter.

Key:
Test in all cases: level (log10 ratio to DMSO vehicle control); higher = higher biomarker level / cell amount than vehicle control
[1] = compound: FC(F)(F)C(F)(F)CNCC(F)(F)C(F)(F)F [Bis(1H,1H-perfluoropropyl)amine] (in DMSO); conditions: 2200 nM
Description: (§1)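 BioMAP Diversity Plus panel of 12 human primary cell co-culture systems (3C, 4H, LPS, SAg, BT, BF4T, BE3C, CASM3C, HDF3CGF, KF3CT, MyoF, Mphg). Compounds were added 1 h before stimulation and left for 24 h (MyoF 48 h; BT 72 h for soluble read-outs or 6 d for IgG). Biomarkers were read by ELISA, cytotoxicity by SRB, PBMC viability and proliferation by Alamar Blue. Each well value was divided by the mean of 8 DMSO control wells on the same plate and log10 transformed; duplicate blinded samples were tested at 4 concentrations.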

[2] = compound: OCC(F)(F)C(F)(F)C(F)(F)C(F)(F)C(F)(F)C(F)(F)CO [1H,1H,8H,8H-Perfluorooctane-1,8-diol] (in DMSO); conditions: 2200 nM
Description: as §1

[3] = compound: O=C(O)C(F)(OC(F)(F)C(F)(F)C(F)(F)F)C(F)(F)F [Ammonium perfluoro-2-methyl-3-oxahexanoate] (in Water)
Description: as §1

[4] = compound: OCC(F)(F)C(F)(F)C(F)(F)C(F)F [1H,1H,5H-Perfluoropentanol] (in DMSO); conditions: 2200 nM
Description: as §1

[5] = compound: FC(F)(F)C(F)(F)C(F)(F)C(F)(F)CCI [1H,1H,2H,2H-Perfluorohexyl iodide] (in DMSO); conditions: 2200 nM
Description: as §1

[6] = compound: C=C(C)C(=O)OCCC(F)(F)C(F)(F)C(F)(F)C(F)(F)C(F)(F)C(F)(F)F [6:2 Fluorotelomer methacrylate] (in DMSO); conditions: 2200 nM
Description: as §1

[7] = compound: OCCCC(F)(F)C(F)(F)C(F)(F)C(F)(F)C(F)(F)C(F)(F)C(F)(F)C(F)(F)F [3-(Perfluorooctyl)propanol] (in DMSO); conditions: 2200 nM
Description: as §1

[8] = compound: O=C(O)CCC(F)(F)C(F)(F)C(F)(F)F [3:3 Fluorotelomer carboxylic acid] (in DMSO); conditions: 2200 nM
Description: as §1

[9] = compound: CNS(=O)(=O)C(F)(F)C(F)(F)C(F)(F)C(F)(F)C(F)(F)C(F)(F)C(F)(F)C(F)(F)F [N-Methylperfluorooctanesulfonamide] (in DMSO); conditions: 2200 nM
Description: as §1

[10] = compound: O=C(O)C(F)(OC(F)(F)C(F)(OC(F)(F)C(F)(OC(F)(F)C(F)(F)C(F)(F)F)C(F)(F)F)C(F)(F)F)C(F)(F)F [Perfluoro-(2,5,8-trimethyl-3,6,9-trioxadodecanoic)acid] (in DMSO); conditions: 370 nM
Description: as §1

[11] = compound: O=C(O)C(F)(F)C(F)(F)C(F)(F)OC(F)(C(F)(F)F)C(F)(F)F [Perfluoro-4-isopropoxybutanoic acid] (in DMSO); conditions: 2200 nM
Description: as §1

[12] = compound: O=S(=O)(O)C(F)(F)C(F)(F)C(F)(F)C(F)(F)F [Perfluorobutanesulfonic acid] (in DMSO)
Description: as §1

[13] = compound: OCC(F)(F)C(F)(F)C(F)(F)C(F)(F)C(F)(F)C(F)(F)F [6:1 Fluorotelomer alcohol] (in DMSO); conditions: 2200 nM
Description: as §1

[14] = compound: O=C(O)C(F)(F)C(F)(F)C(F)(F)C(=O)O [Hexafluoroglutaric acid] (in DMSO)
Description: as §1

[15] = compound: FC(F)(F)COC(OCC(F)(F)F)OCC(F)(F)F [tris(Trifluoroethoxy)methane] (in DMSO); conditions: 2200 nM
Description: as §1

[16] = compound: OCC(F)(F)OC(F)(F)C(F)(F)OC(F)(F)CO [1H,1H,8H,8H-Perfluoro-3,6-dioxaoctane-1,8-diol] (in DMSO); conditions: 2200 nM
Description: as §1

[17] = compound: O=C(O)C(F)(F)C(F)(F)C(F)(F)C(F)(F)C(F)(F)F [Perfluorohexanoic acid] (in DMSO)
Description: as §1

BE3C:CXCL10/IP-10
level (log10) [1]: -0.0075 ± 0.046 | level (log10) [2]: 0 ± 0.0028 | level (log10) ([3]; 2200 nM): -0.0105 ± 0.011 | level (log10) ([3]; 6700 nM): -0.0095 ± 0.013 | level (log10) ([3]; 20000 nM): -0.001 ± 0.0042 | level (log10) ([3]; 60000 nM): 0.0115 ± 0.0092 | level (log10) [4]: 0.0015 ± 0.021 | level (log10) [5]: 0.01 ± 0.0042 | level (log10) [6]: 0.029 ± 0.073 | level (log10) [7]: 0.0075 ± 0.0064 | level (log10) [8]: 0.0055 ± 0.0078 | level (log10) [9]: -0.016 ± 0.0071 | level (log10) [10]: 0.043 ± 0.041 | level (log10) [11]: 0.006 ± 0.023 | level (log10) ([12]; 2200 nM): 0.0065 ± 0.035 | level (log10) ([12]; 6700 nM): 0.009 ± 0.038 | level (log10) ([12]; 20000 nM): -0.0015 ± 0.028 | level (log10) ([12]; 60000 nM): 0.0005 ± 0.018 | level (log10) [13]: 0.031 ± 0.021 | level (log10) ([14]; 2200 nM): -0.003 ± 0.016 | level (log10) ([14]; 6700 nM): -0.001 ± 0.0042 | level (log10) ([14]; 20000 nM): -0.0085 ± 0.00071 | level (log10) ([14]; 60000 nM): 0.0015 ± 0.023 | level (log10) [15]: -0.0065 ± 0.015 | level (log10) [16]: 0.0135 ± 0.00071 | level (log10) ([17]; 2200 nM): 0.0265 ± 0.037 | level (log10) ([17]; 6700 nM): 0.0095 ± 0.018 | level (log10) ([17]; 20000 nM): 0.0125 ± 0.0092 | level (log10) ([17]; 60000 nM): 0.0245 ± 0.011

KF3CT:CCL2/MCP-1
level (log10) [1]: 0.01 ± 0.03 | level (log10) [2]: 0.0275 ± 0.047 | level (log10) ([3]; 2200 nM): 0.115 ± 0.023 | level (log10) ([3]; 6700 nM): 0.086 ± 0.0057 | level (log10) ([3]; 20000 nM): 0.088 ± 0.023 | level (log10) ([3]; 60000 nM): 0.0775 ± 0.018 | level (log10) [4]: 0.008 ± 0.0042 | level (log10) [5]: -0.006 ± 0.0028 | level (log10) [6]: -0.025 ± 0.034 | level (log10) [7]: 0.0005 ± 0.054 | level (log10) [8]: 0.034 ± 0.073 | level (log10) [9]: 0.0095 ± 0.012 | level (log10) [10]: -0.0255 ± 0.035 | level (log10) [11]: 0.0045 ± 0.0092 | level (log10) ([12]; 2200 nM): -0.0085 ± 0.023 | level (log10) ([12]; 6700 nM): -0.032 ± 0.017 | level (log10) ([12]; 20000 nM): -0.0095 ± 0.026 | level (log10) ([12]; 60000 nM): 0.0135 ± 0.083 | level (log10) [13]: 0.01 ± 0.025 | level (log10) ([14]; 2200 nM): -0.0015 ± 0.028 | level (log10) ([14]; 6700 nM): -0.0255 ± 0.04 | level (log10) ([14]; 20000 nM): -0.0325 ± 0.067 | level (log10) ([14]; 60000 nM): -0.0245 ± 0.0021 | level (log10) [15]: 0.0255 ± 0.066 | level (log10) [16]: 0.038 ± 0.042 | level (log10) ([17]; 2200 nM): -0.0105 ± 0.0078 | level (log10) ([17]; 6700 nM): -0.0155 ± 0.019 | level (log10) ([17]; 20000 nM): -0.0385 ± 0.018 | level (log10) ([17]; 60000 nM): 0.001 ± 0.052

lMphg:SRB
level (log10) [1]: -0.014 ± 0.011 | level (log10) [2]: -0.0245 ± 0.00071 | level (log10) ([3]; 2200 nM): -0.049 ± 0.016 | level (log10) ([3]; 6700 nM): -0.043 ± 0.0014 | level (log10) ([3]; 20000 nM): -0.0435 ± 0.00071 | level (log10) ([3]; 60000 nM): -0.0395 ± 0.0035 | level (log10) [4]: -0.0025 ± 0.0064 | level (log10) [5]: -0.008 ± 0.034 | level (log10) [6]: -0.012 ± 0.018 | level (log10) [7]: -0.0005 ± 0.013 | level (log10) [8]: -0.008 ± 0.0042 | level (log10) [9]: -0.001 | level (log10) [10]: -0.0055 ± 0.0064 | level (log10) [11]: 0.002 ± 0.0099 | level (log10) ([12]; 2200 nM): -0.0105 ± 0.015 | level (log10) ([12]; 6700 nM): 0.002 ± 0.013 | level (log10) ([12]; 20000 nM): -0.0155 ± 0.011 | level (log10) ([12]; 60000 nM): -0.0155 ± 0.0064 | level (log10) [13]: 0.002 ± 0.0014 | level (log10) ([14]; 2200 nM): -0.015 ± 0.0071 | level (log10) ([14]; 6700 nM): 0.0035 ± 0.00071 | level (log10) ([14]; 20000 nM): 0.003 ± 0.0085 | level (log10) ([14]; 60000 nM): -0.0045 ± 0.0035 | level (log10) [15]: -0.0105 ± 0.005 | level (log10) [16]: -0.007 ± 0.018 | level (log10) ([17]; 2200 nM): -0.0195 ± 0.0035 | level (log10) ([17]; 6700 nM): -0.019 ± 0.0085 | level (log10) ([17]; 20000 nM): -0.0175 ± 0.0064 | level (log10) ([17]; 60000 nM): -0.006 ± 0.0085
